Data reported in publication PMC4512687.
No constants are given. Whether binding was seen depends on the method and setting. Binding seen in cells or lysates may run through a third protein. A yes stands for co-enrichment or nearness to the bait. Other partners may have been found.

Amino acid sequences for entries named in this document (tags omitted). Residues count along the entry.
UniProt O35625: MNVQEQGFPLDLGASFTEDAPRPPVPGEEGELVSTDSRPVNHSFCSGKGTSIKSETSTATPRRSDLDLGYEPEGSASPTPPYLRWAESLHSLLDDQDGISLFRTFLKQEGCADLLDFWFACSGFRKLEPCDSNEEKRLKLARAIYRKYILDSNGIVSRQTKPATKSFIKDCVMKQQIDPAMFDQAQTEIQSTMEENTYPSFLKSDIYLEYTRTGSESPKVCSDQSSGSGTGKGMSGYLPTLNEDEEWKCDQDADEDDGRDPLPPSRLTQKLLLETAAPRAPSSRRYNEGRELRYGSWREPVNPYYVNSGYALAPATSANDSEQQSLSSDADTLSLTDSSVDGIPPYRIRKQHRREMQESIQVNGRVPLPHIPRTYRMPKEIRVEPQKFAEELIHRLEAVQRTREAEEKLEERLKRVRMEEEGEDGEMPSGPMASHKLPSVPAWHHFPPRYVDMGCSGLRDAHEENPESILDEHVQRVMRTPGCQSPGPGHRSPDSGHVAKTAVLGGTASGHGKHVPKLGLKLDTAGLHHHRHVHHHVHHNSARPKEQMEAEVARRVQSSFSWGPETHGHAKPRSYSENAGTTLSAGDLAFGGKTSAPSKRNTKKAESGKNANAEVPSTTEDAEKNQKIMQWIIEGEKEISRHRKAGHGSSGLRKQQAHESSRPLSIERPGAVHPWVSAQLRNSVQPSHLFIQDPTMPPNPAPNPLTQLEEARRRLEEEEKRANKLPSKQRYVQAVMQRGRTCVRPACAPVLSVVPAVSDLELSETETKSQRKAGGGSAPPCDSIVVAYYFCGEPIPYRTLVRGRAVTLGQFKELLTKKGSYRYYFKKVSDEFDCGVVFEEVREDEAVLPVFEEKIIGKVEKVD
UniProt P38647, residues 47-679: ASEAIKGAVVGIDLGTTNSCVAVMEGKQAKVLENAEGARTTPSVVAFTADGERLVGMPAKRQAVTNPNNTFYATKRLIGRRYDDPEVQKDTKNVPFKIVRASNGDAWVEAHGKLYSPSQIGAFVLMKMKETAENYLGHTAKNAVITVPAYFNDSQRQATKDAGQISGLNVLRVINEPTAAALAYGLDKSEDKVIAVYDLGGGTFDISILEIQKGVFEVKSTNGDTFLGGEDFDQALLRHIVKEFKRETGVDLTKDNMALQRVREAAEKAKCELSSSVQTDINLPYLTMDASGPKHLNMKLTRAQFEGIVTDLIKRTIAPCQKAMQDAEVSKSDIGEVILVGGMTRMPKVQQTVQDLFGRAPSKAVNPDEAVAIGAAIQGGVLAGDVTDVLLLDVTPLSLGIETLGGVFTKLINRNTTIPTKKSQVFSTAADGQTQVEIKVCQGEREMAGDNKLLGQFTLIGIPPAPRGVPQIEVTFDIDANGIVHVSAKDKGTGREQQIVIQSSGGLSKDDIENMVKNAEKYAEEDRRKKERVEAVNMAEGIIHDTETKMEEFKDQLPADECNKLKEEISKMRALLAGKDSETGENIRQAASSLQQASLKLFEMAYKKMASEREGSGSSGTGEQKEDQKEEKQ
UniProt Q6Y685: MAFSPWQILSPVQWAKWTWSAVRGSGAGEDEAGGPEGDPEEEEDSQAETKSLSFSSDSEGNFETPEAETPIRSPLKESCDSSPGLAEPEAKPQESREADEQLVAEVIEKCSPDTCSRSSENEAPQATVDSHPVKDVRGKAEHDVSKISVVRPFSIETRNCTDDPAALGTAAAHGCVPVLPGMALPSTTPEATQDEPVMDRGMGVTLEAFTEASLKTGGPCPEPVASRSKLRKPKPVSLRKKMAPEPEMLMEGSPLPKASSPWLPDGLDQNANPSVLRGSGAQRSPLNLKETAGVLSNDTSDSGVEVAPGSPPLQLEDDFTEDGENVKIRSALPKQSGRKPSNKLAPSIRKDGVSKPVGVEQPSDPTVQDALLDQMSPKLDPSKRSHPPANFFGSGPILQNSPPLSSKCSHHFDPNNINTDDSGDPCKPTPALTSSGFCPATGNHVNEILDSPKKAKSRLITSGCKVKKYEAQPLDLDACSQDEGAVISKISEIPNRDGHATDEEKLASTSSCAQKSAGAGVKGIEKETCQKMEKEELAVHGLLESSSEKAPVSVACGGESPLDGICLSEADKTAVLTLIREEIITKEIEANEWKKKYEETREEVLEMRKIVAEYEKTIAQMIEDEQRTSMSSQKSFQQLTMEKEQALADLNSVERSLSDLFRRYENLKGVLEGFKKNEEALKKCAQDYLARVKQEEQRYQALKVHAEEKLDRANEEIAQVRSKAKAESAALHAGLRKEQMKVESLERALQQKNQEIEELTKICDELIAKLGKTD
UniProt Q7TSJ2: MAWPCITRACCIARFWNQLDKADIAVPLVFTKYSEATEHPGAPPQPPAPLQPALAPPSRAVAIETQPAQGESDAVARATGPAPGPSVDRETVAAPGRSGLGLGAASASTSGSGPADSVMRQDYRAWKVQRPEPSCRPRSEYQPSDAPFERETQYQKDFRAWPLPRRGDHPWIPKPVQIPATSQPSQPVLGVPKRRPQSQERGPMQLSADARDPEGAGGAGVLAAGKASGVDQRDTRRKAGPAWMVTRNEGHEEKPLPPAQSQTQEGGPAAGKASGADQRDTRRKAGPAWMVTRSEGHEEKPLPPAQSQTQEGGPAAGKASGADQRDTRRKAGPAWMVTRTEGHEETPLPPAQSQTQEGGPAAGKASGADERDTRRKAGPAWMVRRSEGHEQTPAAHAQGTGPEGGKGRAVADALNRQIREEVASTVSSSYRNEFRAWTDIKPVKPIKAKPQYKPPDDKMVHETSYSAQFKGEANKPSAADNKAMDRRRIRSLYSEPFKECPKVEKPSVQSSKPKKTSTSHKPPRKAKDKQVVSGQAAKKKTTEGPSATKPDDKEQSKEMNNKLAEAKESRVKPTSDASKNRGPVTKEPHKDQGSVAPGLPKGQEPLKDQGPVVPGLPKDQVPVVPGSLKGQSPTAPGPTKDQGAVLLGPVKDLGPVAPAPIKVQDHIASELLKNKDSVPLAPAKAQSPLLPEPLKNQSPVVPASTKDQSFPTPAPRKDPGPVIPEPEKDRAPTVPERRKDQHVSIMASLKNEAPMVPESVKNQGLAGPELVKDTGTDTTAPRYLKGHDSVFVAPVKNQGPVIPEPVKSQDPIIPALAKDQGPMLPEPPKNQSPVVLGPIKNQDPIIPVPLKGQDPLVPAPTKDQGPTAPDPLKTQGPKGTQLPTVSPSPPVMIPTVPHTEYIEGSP
UniProt Q62261: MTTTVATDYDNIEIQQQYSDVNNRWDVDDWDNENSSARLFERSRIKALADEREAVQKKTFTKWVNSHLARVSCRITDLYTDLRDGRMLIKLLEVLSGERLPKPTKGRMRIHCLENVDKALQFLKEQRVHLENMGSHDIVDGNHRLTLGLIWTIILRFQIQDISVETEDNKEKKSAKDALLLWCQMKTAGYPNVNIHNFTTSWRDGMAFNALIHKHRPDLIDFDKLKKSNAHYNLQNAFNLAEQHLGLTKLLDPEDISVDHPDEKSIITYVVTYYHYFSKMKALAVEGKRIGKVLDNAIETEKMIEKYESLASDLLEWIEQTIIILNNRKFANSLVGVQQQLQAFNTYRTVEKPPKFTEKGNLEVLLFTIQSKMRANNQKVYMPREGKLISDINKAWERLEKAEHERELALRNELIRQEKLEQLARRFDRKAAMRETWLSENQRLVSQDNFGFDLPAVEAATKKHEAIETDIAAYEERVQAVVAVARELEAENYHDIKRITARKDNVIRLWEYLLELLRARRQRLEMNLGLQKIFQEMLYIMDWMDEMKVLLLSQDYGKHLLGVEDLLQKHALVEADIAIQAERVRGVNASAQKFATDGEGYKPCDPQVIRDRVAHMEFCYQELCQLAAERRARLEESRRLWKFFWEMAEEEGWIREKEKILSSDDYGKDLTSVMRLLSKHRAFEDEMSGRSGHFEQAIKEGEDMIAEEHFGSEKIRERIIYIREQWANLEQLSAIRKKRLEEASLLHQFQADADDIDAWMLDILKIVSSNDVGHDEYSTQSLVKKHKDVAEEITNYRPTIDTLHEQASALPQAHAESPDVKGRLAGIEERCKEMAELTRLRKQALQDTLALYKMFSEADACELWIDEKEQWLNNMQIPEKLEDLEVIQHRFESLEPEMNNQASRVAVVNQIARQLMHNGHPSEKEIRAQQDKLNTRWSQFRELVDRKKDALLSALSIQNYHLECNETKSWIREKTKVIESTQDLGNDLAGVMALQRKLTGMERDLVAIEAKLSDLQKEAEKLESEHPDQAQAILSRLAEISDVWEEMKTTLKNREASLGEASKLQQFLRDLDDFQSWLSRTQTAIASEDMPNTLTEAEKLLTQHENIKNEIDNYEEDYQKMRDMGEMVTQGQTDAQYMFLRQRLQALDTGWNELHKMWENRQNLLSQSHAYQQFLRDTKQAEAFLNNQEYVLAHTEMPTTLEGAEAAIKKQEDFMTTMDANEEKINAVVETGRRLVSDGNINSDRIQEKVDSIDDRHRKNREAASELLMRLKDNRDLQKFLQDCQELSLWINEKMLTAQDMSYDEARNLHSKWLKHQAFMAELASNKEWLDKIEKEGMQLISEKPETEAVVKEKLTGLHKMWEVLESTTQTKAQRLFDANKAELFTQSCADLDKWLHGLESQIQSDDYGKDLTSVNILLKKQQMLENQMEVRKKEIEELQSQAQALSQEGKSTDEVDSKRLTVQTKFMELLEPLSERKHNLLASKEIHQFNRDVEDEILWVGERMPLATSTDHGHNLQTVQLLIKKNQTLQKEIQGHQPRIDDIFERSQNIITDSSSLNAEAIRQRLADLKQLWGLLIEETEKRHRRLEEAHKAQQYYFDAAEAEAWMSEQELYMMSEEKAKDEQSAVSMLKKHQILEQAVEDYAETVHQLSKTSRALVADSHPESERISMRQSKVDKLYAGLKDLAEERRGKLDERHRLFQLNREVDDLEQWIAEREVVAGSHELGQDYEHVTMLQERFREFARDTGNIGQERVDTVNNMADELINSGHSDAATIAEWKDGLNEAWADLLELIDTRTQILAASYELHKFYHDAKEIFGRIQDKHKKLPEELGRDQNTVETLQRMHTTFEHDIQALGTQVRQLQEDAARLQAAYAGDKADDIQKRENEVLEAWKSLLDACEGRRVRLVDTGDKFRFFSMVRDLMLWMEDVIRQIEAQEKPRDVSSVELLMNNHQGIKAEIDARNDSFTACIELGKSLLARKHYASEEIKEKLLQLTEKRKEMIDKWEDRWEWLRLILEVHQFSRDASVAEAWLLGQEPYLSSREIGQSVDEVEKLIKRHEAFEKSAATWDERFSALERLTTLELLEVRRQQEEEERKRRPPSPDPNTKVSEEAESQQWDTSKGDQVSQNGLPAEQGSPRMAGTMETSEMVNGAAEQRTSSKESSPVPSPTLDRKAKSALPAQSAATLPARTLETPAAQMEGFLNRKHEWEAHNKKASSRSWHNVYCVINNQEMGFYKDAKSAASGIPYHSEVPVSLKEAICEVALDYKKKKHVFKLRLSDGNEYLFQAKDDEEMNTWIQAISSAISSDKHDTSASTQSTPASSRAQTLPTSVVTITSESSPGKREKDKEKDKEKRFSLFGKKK
UniProt P28652: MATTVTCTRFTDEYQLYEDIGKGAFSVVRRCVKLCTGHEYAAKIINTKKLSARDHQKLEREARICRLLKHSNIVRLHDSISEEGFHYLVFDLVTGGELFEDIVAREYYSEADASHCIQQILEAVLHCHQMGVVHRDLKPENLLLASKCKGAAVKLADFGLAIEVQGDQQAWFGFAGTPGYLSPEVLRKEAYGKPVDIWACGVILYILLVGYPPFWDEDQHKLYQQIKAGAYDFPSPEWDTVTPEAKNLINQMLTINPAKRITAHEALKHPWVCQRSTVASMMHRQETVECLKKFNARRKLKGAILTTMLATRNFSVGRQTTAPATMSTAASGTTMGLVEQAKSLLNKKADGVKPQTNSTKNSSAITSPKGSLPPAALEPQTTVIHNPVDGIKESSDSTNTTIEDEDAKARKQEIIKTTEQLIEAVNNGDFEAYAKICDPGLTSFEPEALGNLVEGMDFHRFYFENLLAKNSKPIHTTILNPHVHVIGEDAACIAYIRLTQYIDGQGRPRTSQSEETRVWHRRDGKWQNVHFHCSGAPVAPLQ

B1: Neurofilament light polypeptide (protein, UniProt P08551 1-543)
chain: MSSFGYDPYFSTSYKRRYVETPRVHISSVRSGYSTARSAYSSYSAPVSSSLSVRRSYSSSSGSLMPSLENLDLSQVAAISNDLKSIRTQEKAQLQDLNDRFASFIERVHELEQQNKVLEAELLVLRQKHSEPSRFRALYEQEIRDLRLAAEDATNEKQALQGEREGLEETLRNLQARYEEEVLSREDAEGRLMEARKGADEAALARAELEKRIDSLMDEIAFLKKVHEEEIAELQAQIQYAQISVEMDVSSKPDLSAALKDIRAQYEKLAAKNMQNAEEWFKSRFTVLTESAAKNTDAVRAAKDEVSESRRLLKAKTLEIEACRGMNEALEKQLQELEDKQNADISAMQDTINKLENELRSTKSEMARYLKEYQDLLNVKMALDIEIAAYRKLLEGEETRLSFTSVGSITSGYSQSSQVFGRSAYSGLQSSSYLMSARSFPAYYTSHVQEEQTEVEETIEATKAEEAKDEPPSEGEAEEEEKEKEEGEEEEGAEEEEAAKDESEDTKEEEEGGEGEEEDTKESEEEEKKEESAGEEQVAKKKD
B2: Neurofilament medium polypeptide (protein, UniProt P08553 1-848)
chain: MSYTLDSLGNPSAYRRVTETRSSFSRVSGSPSSGFRSQSWSRGSPSTVSSSYKRSALAPRLAYSSAMLSSAESSLDFSQSSSLLNGGSGGDYKLSRSNEKEQLQGLNDRFAGYIEKVHYLEQQNKEIEAEIQALRQKQASHAQLGDAYDQEIRELRATLEMVNHEKAQVQLDSDHLEEDIHRLKERFEEEARLRDDTEAAIRALRKDIEESSMVKVELDKKVQSLQDEVAFLRSNHEEEVADLLAQIQASHITVERKDYLKTDISTALKEIRSQLECHSDQNMHQAEEWFKCRYAKLTEAAEQNKEAIRSAKEEIAEYRRQLQSKSIELESVRGTKESLERQLSDIEERHNHDLSSYQDTIQQLENELRGTKWEMARHLREYQDLLNVKMALDIEIAAYRKLLEGEETRFSTFSGSITGPLYTHRQPSVTISSKIQKTKVEAPKLKVQHKFVEEIIEETKVEDEKSEMEETLTAIAEELAASAKEEKEEAEEKEEEPEAEKSPVKSPEAKEEEEEGEKEEEEEGQEEEEEEDEGVKSDQAEEGGSEKEGSSEKDEGEQEEEEGETEAEGEGEEAEAKEEKKIEGKVEEVAVKEEIKVEKPEKAKSPMPKSPVEEVKPKPEAKAGKGEQKEEEKVEEEKKEVTKESPKEEKVEKKEEKPKDVADKKKAESPVKEKAVEEVITISKSVKVSLEKDTKEEKPQPQEKVKEKAEEEGGSEEEGSDRSPQESKKEDIAINGEVEGKEEEEQETQEKGSGREEEKGVVTNGLDVSPAEEKKGEDSSDDKVVVTKKVEKITSEGGDGATKYITKSVTVTQKVEEHEETFEEKLVSTKKVEKVTSHAIVKEVTQGD
B3: Alpha-internexin (protein, UniProt P46660 1-501)
chain: MSFGSEHYLCSASSYRKVFGDSSRLSARLSGPGGSGSFRSQSLSRSNVASTAACSSASSLGLGLAYRRLPASDGLDLSQAAARTNEYKIIRTNEKEQLQGLNDRFAVFIEKVHQLETQNRALEAELAALRQRHAEPSRVGELFQRELRELRAQLEEASSARAQALLERDGLAEEVQRLRARCEEESRGREGAERALKAQQRDVDGATLARLDLEKKVESLLDELAFVRQVHDEEVAELLATLQASSQAAAEVDVAVAKPDLTSALREIRAQYESLAAKNLQSAEEWYKSKFANLNEQAARSTEAIRASREEIHEYRRQLQARTIEIEGLRGANESLERQILELEERHSAEVAGYQDSIGQLESDLRNTKSEMARHLREYQDLLNVKMALDIEIAAYRKLLEGEETRFSTGGLSISGLNPLPNPSYLLPPRILSSTASKVSSAGLSLKKEEEEEEEEASKEVSKKTSKVGEGFEETLGEAVISTKKTGKSATEESTSSSQKM
B4: Dynamin-1 (protein, UniProt P39053 1-867)
chain: MGNRGMEDLIPLVNRLQDAFSAIGQNADLDLPQIAVVGGQSAGKSSVLENFVGRDFLPRGSGIVTRRPLVLQLVNSTTEYAEFLHCKGKKFTDFEEVRLEIEAETDRVTGTNKGISPVPINLRVYSPHVLNLTLVDLPGMTKVPVGDQPPDIEFQIRDMLMQFVTKENCLILAVSPANSDLANSDALKIAKEVDPQGQRTIGVITKLDLMDEGTDARDVLENKLLPLRRGYIGVVNRSQKDIDGKKDITAALAAERKFFLSHPSYRHLADRMGTPYLQKVLNQQLTNHIRDTLPGLRNKLQSQLLSIEKEVDEYKNFRPDDPARKTKALLQMVQQFAVDFEKRIEGSGDQIDTYELSGGARINRIFHERFPFELVKMEFDEKELRREISYAIKNIHGIRTGLFTPDMAFETIVKKQVKKIREPCLKCVDMVISELISTVRQCTKKLQQYPRLREEMERIVTTHIREREGRTKEQVMLLIDIELAYMNTNHEDFIGFANAQQRSNQMNKKKTSGNQDEILVIRKGWLTINNIGIMKGGSKEYWFVLTAENLSWYKDDEEKEKKYMLSVDNLKLRDVEKGFMSSKHIFALFNTEQRNVYKDYRQLELACETQEEVDSWKASFLRAGVYPERVGDKEKASETEENGSDSFMHSMDPQLERQVETIRNLVDSYMAIVNKTVRDLMPKTIMHLMINNTKEFIFSELLANLYSCGDQNTLMEESAEQAQRRDEMLRMYHALKEALSIIGDINTTTVSTPMPPPVDDSWLQVQSVPAGRRSPTSSPTPQRRAPAVPPARPGSRGPAPGPPPAGSALGGAPPVPSRPGASPDPFGPPPQVPSRPNRAPPGVPSLGAWRLNSPQGKHENRAGKARL

The molecules below were run against Axin (mouse (endogenous in mouse brain)) (UniProt O35625) (assay: affinity purification with mass spectrometry; co-immunoprecipitation with Axin antibody from 2 mg protein of the washed synaptosomal fraction (P2') of whole mouse brain; normal rabbit IgG as control; SDS-PAGE, trypsin digestion, mass spectrometry; unique peptide count >=2 considered positive).
For “Stress-70 protein, mitochondrial (from UniProt P38647 47-679)”, the binding was “binds”. For “Transforming acidic coiled-coil-containing protein 1 (from UniProt Q6Y685 1-774)”, the binding was “binds”. For Spna2 protein (from UniProt P16546), the binding was “binds”. For “Microtubule-associated protein 6 (from UniProt Q7TSJ2 1-906)”, the binding was “binds”. With “Heat shock protein 105 kDa (from UniProt Q61699 1-858)” the binding was “binds”. In the case of “Spectrin beta chain, non-erythrocytic 1 (from UniProt Q62261 1-2363)”, the binding is reported as “binds”. In the case of “Calcium/calmodulin-dependent protein kinase type II subunit beta (from UniProt P28652 1-542)”, the binding is reported as “binds”. In the case of “Heat shock-related 70 kDa protein 2 (from UniProt P17156 1-633)”, the binding is reported as “binds”. In the case of “Tyrosine-protein phosphatase non-receptor type 11 (from UniProt P35235 1-593)”, the binding is reported as “binds”. “Sodium/potassium-transporting ATPase subunit alpha-2 (from UniProt Q6PIE5 1-1020)” was tested, and the binding was “binds”. “Spectrin alpha chain, non-erythrocytic 1 (from UniProt P16546 1-2472)” was tested, and the binding was “binds”. With “Heat shock protein 1-like (from UniProt P16627 1-641)” the binding was “binds”. B1 was tested, and the binding was “binds”. In the case of B2, the binding is reported as “binds”. With B3 the binding was “binds”. For B4, the binding was “binds”.
